Data as given in paper PMC12035908.

Target: T1, V5-SNX17 (sorting nexin 17) (UniProt Q15036)
T1 sequence: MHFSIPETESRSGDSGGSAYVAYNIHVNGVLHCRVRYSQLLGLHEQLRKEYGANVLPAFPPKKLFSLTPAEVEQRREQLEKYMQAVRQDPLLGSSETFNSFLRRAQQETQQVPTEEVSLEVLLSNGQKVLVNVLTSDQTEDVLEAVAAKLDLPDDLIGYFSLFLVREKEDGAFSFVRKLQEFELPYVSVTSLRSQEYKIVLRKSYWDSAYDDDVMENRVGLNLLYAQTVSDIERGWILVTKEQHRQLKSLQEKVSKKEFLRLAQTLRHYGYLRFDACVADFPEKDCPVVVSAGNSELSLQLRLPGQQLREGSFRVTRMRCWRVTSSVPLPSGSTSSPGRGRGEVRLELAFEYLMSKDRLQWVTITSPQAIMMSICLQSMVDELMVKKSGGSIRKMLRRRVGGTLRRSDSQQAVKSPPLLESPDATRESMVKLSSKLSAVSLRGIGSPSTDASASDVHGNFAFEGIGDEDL
Experiment: affinity purification with mass spectrometry; IP with an antibody against the V5 tag from total protein lysates of MHCC-97H cells overexpressing V5-SNX17; LC-MS

Substance: VPS26A (from UniProt O75436 1-327)
- binding: binds

Results are given in words; binding and its absence hold for the method and conditions named. In cells and extracts the contact can be indirect. These calls come from enrichment with a bait or labelling near it, and not all partners need be listed. Tags and fused reporters may be left off the sequences shown.
